# Measurements from PMC12504162.
# By UniProt entry, the sequences of proteins in these tests, tags left out. Where a name states a change or a piece, a line headed by the entry shows the natural chain unless it says otherwise.
# UniProt P0C0S5: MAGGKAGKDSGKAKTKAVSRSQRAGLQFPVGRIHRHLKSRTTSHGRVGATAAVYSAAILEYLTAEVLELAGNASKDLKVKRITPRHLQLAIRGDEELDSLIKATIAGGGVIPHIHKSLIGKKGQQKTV
# UniProt Q13547: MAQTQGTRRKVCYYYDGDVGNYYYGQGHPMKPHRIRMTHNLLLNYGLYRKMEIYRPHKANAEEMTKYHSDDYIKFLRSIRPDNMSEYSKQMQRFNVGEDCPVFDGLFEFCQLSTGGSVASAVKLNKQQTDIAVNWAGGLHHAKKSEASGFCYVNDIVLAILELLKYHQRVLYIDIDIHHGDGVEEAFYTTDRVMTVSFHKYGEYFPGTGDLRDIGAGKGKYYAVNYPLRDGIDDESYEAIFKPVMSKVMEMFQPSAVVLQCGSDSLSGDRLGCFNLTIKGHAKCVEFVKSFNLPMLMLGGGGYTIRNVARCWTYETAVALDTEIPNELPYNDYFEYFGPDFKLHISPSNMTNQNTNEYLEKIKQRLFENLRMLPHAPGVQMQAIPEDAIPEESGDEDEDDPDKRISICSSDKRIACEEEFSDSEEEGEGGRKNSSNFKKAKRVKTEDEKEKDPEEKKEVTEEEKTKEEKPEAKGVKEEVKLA
# These are yes or no findings as the source states them, for the method shown. In cells and extracts the contact can be indirect. Some entries that bind do so weakly or less than the wild type.
# Molecular target: histone variant H2AFZ (human (endogenous in PDLSCs)) (UniProt P0C0S5)
# Assay: co-IP; lysates of PDLSCs after 3 days of osteogenic induction, in co-IP buffer; incubated with HDAC1 antibody or H2AFZ antibody overnight at 4 °C, magnetic beads 2 h at 4 °C, three washes, Western blot
substance,measurement,value
HDAC1 (from UniProt Q13547 1-482) (enzyme),binding,binds
